This is one part of the list.
Experiments:
Assay in all cases: glycan array binding signal (z-score within array); higher = stronger binding
Details in all cases: glycan notation: IUPAC condensed, linker removed
[1] = target: Fuc(a1-2)Gal
Outline: (§1)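 Glycan array data were curated from 3228 arrays in the Consortium for Functional Glycomics database and kept only where the protein sequence was available. Glycan names were converted to IUPAC-condensed notation, and columns mapping to the same glycan were averaged. The binding signal is a within-array Z-score, averaged across arrays of the same protein sequence at different concentrations or buffers and across linkers. Negative Z-scores can be read as non-binding.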

[2] = target: Fuc(a1-2)Gal(b1-3)GalNAc
Outline: as §1

[3] = target: Fuc(a1-2)Gal(b1-3)GalNAc(a1-3)[Fuc(a1-2)]Gal(b1-4)Glc
Outline: as §1

[4] = target: Fuc(a1-2)Gal(b1-3)GalNAc(a1-3)[Fuc(a1-2)]Gal(b1-4)GlcNAc
Outline: as §1

[5] = target: Fuc(a1-2)Gal(b1-3)GalNAc(b1-3)Gal
Outline: as §1

[6] = target: Fuc(a1-2)Gal(b1-3)GalNAc(b1-3)Gal(a1-4)Gal(b1-4)Glc
Outline: as §1

[7] = target: Fuc(a1-2)Gal(b1-3)GalNAc(b1-4)[Neu5Ac(a2-3)]Gal(b1-4)Glc
Outline: as §1

[8] = target: Fuc(a1-2)Gal(b1-3)GlcNAc
Outline: as §1

[9] = target: Fuc(a1-2)Gal(b1-3)GlcNAc(b1-2)Man(a1-3)[Fuc(a1-2)Gal(b1-3)GlcNAc(b1-2)Man(a1-6)]Man(b1-4)GlcNAc(b1-4)GlcNAc
Outline: as §1

[10] = target: Fuc(a1-2)Gal(b1-3)GlcNAc(b1-2)Man(a1-3)[Fuc(a1-2)Gal(b1-3)GlcNAc(b1-2)Man(a1-6)]Man(b1-4)GlcNAc(b1-4)[Fuc(a1-6)]GlcNAc
Outline: as §1

[11] = target: Fuc(a1-2)Gal(b1-3)GlcNAc(b1-3)Gal(b1-4)Glc
Outline: as §1

[12] = target: Fuc(a1-2)Gal(b1-3)GlcNAc(b1-3)GalNAc
Outline: as §1

[13] = target: Fuc(a1-2)Gal(b1-3)GlcNAc(b1-3)[Fuc(a1-2)Gal(b1-3)GlcNAc(b1-6)]GalNAc
Outline: as §1

[14] = target: Fuc(a1-2)Gal(b1-3)GlcNAc(b1-3)[Gal(b1-4)GlcNAc(b1-6)]Gal(b1-4)Glc
Outline: as §1

[15] = target: Fuc(a1-2)Gal(b1-3)GlcNAc(b1-3)[Neu5Ac(a2-6)Gal(b1-4)GlcNAc(b1-6)]Gal(b1-4)Glc
Outline: as §1

[16] = target: Fuc(a1-2)Gal(b1-3)GlcNAc6S
Outline: as §1

[17] = target: Fuc(a1-2)Gal(b1-3)[Fuc(a1-4)]GlcNAc
Outline: as §1

[18] = target: Fuc(a1-2)Gal(b1-3)[Fuc(a1-4)]GlcNAc(b1-2)Man(a1-3)[Fuc(a1-2)Gal(b1-3)[Fuc(a1-4)]GlcNAc(b1-2)Man(a1-3)]Man(b1-4)GlcNAc(b1-4)GlcNAc
Outline: as §1

[19] = target: Fuc(a1-2)Gal(b1-3)[Fuc(a1-4)]GlcNAc(b1-2)Man(a1-3)[Fuc(a1-2)Gal(b1-3)[Fuc(a1-4)]GlcNAc(b1-2)Man(a1-6)]Man(b1-4)GlcNAc(b1-4)[Fuc(a1-6)]GlcNAc(b1-4)[Fuc(a1-6)]GlcNAc
Outline: as §1

[20] = target: Fuc(a1-2)Gal(b1-3)[Fuc(a1-4)]GlcNAc(b1-3)[Fuc(a1-3)[Gal(b1-4)]GlcNAc(b1-6)]Gal(b1-4)Glc
Outline: as §1

[21] = target: Fuc(a1-2)Gal(b1-3)[Fuc(a1-4)]GlcNAc(b1-3)[Gal(b1-4)GlcNAc(b1-6)]Gal(b1-4)Glc
Outline: as §1

[22] = target: Fuc(a1-2)Gal(b1-4)Glc
Outline: as §1

[23] = target: Fuc(a1-2)Gal(b1-4)Glc6S
Outline: as §1

[24] = target: Fuc(a1-2)Gal(b1-4)GlcNAc
Outline: as §1

[25] = target: Fuc(a1-2)Gal(b1-4)GlcNAc(b1-2)Man
Outline: as §1

[26] = target: Fuc(a1-2)Gal(b1-4)GlcNAc(b1-2)Man(a1-3)[Fuc(a1-2)Gal(b1-4)GlcNAc(b1-2)Man(a1-6)]Man(b1-4)GlcNAc(b1-4)GlcNAc
Outline: as §1

[27] = target: Fuc(a1-2)Gal(b1-4)GlcNAc(b1-2)Man(a1-3)[Fuc(a1-2)Gal(b1-4)GlcNAc(b1-2)Man(a1-6)]Man(b1-4)GlcNAc(b1-4)[Fuc(a1-6)]GlcNAc
Outline: as §1

[28] = target: Fuc(a1-2)Gal(b1-4)GlcNAc(b1-2)[Fuc(a1-2)Gal(b1-4)GlcNAc(b1-4)]Man(a1-3)[Fuc(a1-2)Gal(b1-4)GlcNAc(b1-2)Man(a1-6)]Man(b1-4)GlcNAc(b1-4)GlcNAc
Outline: as §1

[29] = target: Fuc(a1-2)Gal(b1-4)GlcNAc(b1-3)Gal(b1-4)GlcNAc
Outline: as §1

[30] = target: Fuc(a1-2)Gal(b1-4)GlcNAc(b1-3)Gal(b1-4)GlcNAc(b1-2)Man(a1-3)[Fuc(a1-2)Gal(b1-4)GlcNAc(b1-3)Gal(b1-4)GlcNAc(b1-2)Man(a1-6)]Man(b1-4)GlcNAc(b1-4)GlcNAc
Outline: as §1

[31] = target: Fuc(a1-2)Gal(b1-4)GlcNAc(b1-3)Gal(b1-4)GlcNAc(b1-3)Gal(b1-4)GlcNAc
Outline: as §1

[32] = target: Fuc(a1-2)Gal(b1-4)GlcNAc(b1-3)GalNAc
Outline: as §1

[33] = target: Fuc(a1-2)Gal(b1-4)GlcNAc(b1-3)[Fuc(a1-2)Gal(b1-4)GlcNAc(b1-6)]GalNAc
Outline: as §1

[34] = target: Fuc(a1-2)Gal(b1-4)GlcNAc(b1-3)[Fuc(a1-3)[Gal(b1-4)]GlcNAc(b1-6)]Gal(b1-4)Glc
Outline: as §1

[35] = target: Fuc(a1-2)Gal(b1-4)GlcNAc(b1-6)GalNAc
Outline: as §1

[36] = target: Fuc(a1-2)Gal(b1-4)GlcNAc6S
Outline: as §1

[37] = target: Fuc(a1-2)Gal(b1-4)[Fuc(a1-3)]GlcNAc
Outline: as §1

[38] = target: Fuc(a1-2)Gal(b1-4)[Fuc(a1-3)]GlcNAc(b1-2)Man(a1-3)[Fuc(a1-2)Gal(b1-4)[Fuc(a1-3)]GlcNAc(b1-2)Man(a1-6)]Man(b1-4)GlcNAc(b1-4)[Fuc(a1-6)]GlcNAc
Outline: as §1

[39] = target: Fuc(a1-2)Gal(b1-4)[Fuc(a1-3)]GlcNAc(b1-2)[Fuc(a1-2)Gal(b1-4)[Fuc(a1-3)]GlcNAc(b1-4)]Man(a1-3)[Fuc(a1-2)Gal(b1-4)[Fuc(a1-3)]GlcNAc(b1-2)Man(a1-6)]Man(b1-4)GlcNAc(b1-4)GlcNAc
Outline: as §1

[40] = target: Fuc(a1-2)Gal(b1-4)[Fuc(a1-3)]GlcNAc(b1-3)Gal(b1-4)[Fuc(a1-3)]GlcNAc
Outline: as §1

[41] = target: Fuc(a1-2)Gal(b1-4)[Fuc(a1-3)]GlcNAc(b1-3)Gal(b1-4)[Fuc(a1-3)]GlcNAc(b1-3)Gal(b1-4)[Fuc(a1-3)]GlcNAc
Outline: as §1

[42] = target: Fuc(a1-2)Gal(b1-4)[Fuc(a1-3)]GlcNAc(b1-3)GalNAc
Outline: as §1

[43] = target: Fuc(a1-2)Gal(b1-4)[Fuc(a1-3)]GlcNAc(b1-3)[Neu5Ac(a2-6)Gal(b1-4)GlcNAc(b1-6)]Gal(b1-4)Glc
Outline: as §1

[44] = target: Fuc(a1-2)Gal3S(b1-4)GlcNAc
Outline: as §1

[45] = target: Fuc(a1-2)Gal6S(b1-3)GlcNAc
Outline: as §1

B1: PX14343C-bfa-541-26-541 (Bacteroides fragilis) (protein)
chain: KAPLDEIADDSFWSDETLVKYYVNDLYSEISVDGLQLQENRSDNSVSAQRDKYRASWFKFNYDMVSASDPQDDDVWEDYYVKVRKCNRFFERIGTSTIEESEKSRLTGEVHFLRAMFYFEMVKRYGGVILLDKVLTMEDNWEIPRSSEKECYDFILEDLKKATEMLPASYGSREKGRATKGAAYALKSRVELYDKRYEDVIKSCAEVYKLGYELVDGTTPEKYRSIWWTTNKDNKEIIFDVQYKSPDVYNNMMVCNMVTYINDKYGDRGWGGLGPTQELIDAFEMADGTPATQYSQAPADQVFDINTCGIYEGREPRFYANIVFHGSQIFFNADKGAVTVDRYLMDTPDKGDGSLTGYNVWKWIDYDNYNYPYAGAGSPDFSTNWIILRYAEIYLNDAEARLETGDVEGARKAVNMIRQRVGLPDLTESDPEKLRELIRKERRIEFAFEEQRFYDVRRWKIGPETQTTLHGVRFVSPTEFKVTKTDIRTWNDRLYLTPVPHDEIVRSSVLKQNLGY
[1]
  glycan array binding signal (z-score): -0.379
[2]
  glycan array binding signal (z-score): -0.421
[3]
  glycan array binding signal (z-score): -0.517
[4]
  glycan array binding signal (z-score): -0.217
[5]
  glycan array binding signal (z-score): -0.342
[6]
  glycan array binding signal (z-score): -0.159
[7]
  glycan array binding signal (z-score): 1.52
[8]
  glycan array binding signal (z-score): 0.399
[9]
  glycan array binding signal (z-score): 1.8
[10]
  glycan array binding signal (z-score): 0.448
[11]
  glycan array binding signal (z-score): -0.05
[12]
  glycan array binding signal (z-score): -0.679
[13]
  glycan array binding signal (z-score): -0.053
[14]
  glycan array binding signal (z-score): -0.066
[15]
  glycan array binding signal (z-score): -0.122
[16]
  glycan array binding signal (z-score): 0.633
[17]
  glycan array binding signal (z-score): -0.507
[18]
  glycan array binding signal (z-score): 0.062
[19]
  glycan array binding signal (z-score): 0.403
[20]
  glycan array binding signal (z-score): -0.524
[21]
  glycan array binding signal (z-score): -0.285
[22]
  glycan array binding signal (z-score): -1.08
[23]
  glycan array binding signal (z-score): 0.086
[24]
  glycan array binding signal (z-score): -0.892
[25]
  glycan array binding signal (z-score): -0.373
[26]
  glycan array binding signal (z-score): -0.29
[27]
  glycan array binding signal (z-score): 0.075
[28]
  glycan array binding signal (z-score): 0.146
[29]
  glycan array binding signal (z-score): 0.048
[30]
  glycan array binding signal (z-score): -0.646
[31]
  glycan array binding signal (z-score): -0.681
[32]
  glycan array binding signal (z-score): 0.282
[33]
  glycan array binding signal (z-score): -0.425
[34]
  glycan array binding signal (z-score): -0.652
[35]
  glycan array binding signal (z-score): -0.468
[36]
  glycan array binding signal (z-score): -0.542
[37]
  glycan array binding signal (z-score): -0.648
[38]
  glycan array binding signal (z-score): 0.078
[39]
  glycan array binding signal (z-score): 0.44
[40]
  glycan array binding signal (z-score): -0.558
[41]
  glycan array binding signal (z-score): -0.071
[42]
  glycan array binding signal (z-score): -0.284
[43]
  glycan array binding signal (z-score): 1.07
[44]
  glycan array binding signal (z-score): -0.822
[45]
  glycan array binding signal (z-score): -0.193

Reference: the supplement of paper PMC8728848
